We go through one molecule from patent US20130324409A1.

Chains of the proteins cited; added tags and fusions are not shown. Residues count along the entry.
UniProt Q9CAJ0, residues 23-511: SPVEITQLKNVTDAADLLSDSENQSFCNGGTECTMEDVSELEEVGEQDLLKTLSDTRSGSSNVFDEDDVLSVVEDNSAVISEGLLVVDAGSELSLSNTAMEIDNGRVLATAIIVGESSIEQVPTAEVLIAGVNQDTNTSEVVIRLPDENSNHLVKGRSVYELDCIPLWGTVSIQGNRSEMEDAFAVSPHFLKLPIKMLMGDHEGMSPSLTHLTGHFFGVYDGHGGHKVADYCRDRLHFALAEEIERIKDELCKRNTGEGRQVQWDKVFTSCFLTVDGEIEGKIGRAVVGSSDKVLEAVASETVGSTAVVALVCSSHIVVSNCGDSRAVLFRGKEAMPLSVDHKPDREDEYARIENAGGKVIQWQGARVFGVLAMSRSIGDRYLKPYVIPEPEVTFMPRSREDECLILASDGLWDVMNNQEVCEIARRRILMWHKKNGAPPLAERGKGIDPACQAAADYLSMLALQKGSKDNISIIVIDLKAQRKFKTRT

Results are given in words; binding and its absence hold for the method and conditions named. In cells and extracts the contact can be indirect. Some entries that bind do so weakly or less than the wild type. Sequences can lack the tags named with a protein.

This experiment deals with GST-HAB1 (Arabidopsis) (UniProt Q9CAJ0). As to the kind of experiment: in vitro pull-down as developed for PYR1, with ABA.

B1: PYL4 6×His-tagged protein (receptor)
chain: HHHHHHMLAVHRPSSAVSDGDSVQIPMMIASFQKRFPSLSRDSTAARFHTHEVGPNQCCSAVIQEISAPISTVWSVVRRFDNPQAYKHFLKSCSVIGGDGDNVGSLRQVHVVSGLPAASSTERLDILDDERHVISFSVVGGDHRLSNYRSVTTLHPSPISGTVVVESYVVDVPPGNTKEETCDFVDVIVRCNLQSLAKIAENTAAESKKKMSL
Consider B1, for which the binding result is recorded as “binds”.
